Experimental data as given in US20120088262A1, “CYANINE COMPOUNDS, CONJUGATES AND METHOD OF USE” (Millipore Corporation, priority 2010, published 2012).

System: live and dead cells
Assay: Cell viability detection with amine reactive viability dye by flow cytometry
Type: cell-based
Settings: used as a viability dye
Protocol: Pipet 100 uL of prepared cells in biological buffer or media in a reaction vessel such as a tube or microwell plate. Add 100 uL of working solution to 100 uL cell sample; mix well and incubate at the room temperature for 15 minutes. Remove supernatant without disturbing the pellet. Wash the cells with PBS with bovine serum albumin (BSA) (range 0.2-10%) per well; centrifuge plate at 1000 rpm for 5 minutes; remove the supernatant by aspiration without disturbing the cell pellet.
Cells were killed by heat or treated with diamide or staurosporine inducers.

Compound | fluorescence bleedthrough in adjacent channels
CC1(C)C(/C=C/C=C/C=C2\Oc3ccccc3N2Cc2ccc(CC(=O)ON3C(=O)CCC3=O)cc2)=[N+](Cc2ccc(CC(=O)ON3C(=O)CCC3=O)cc2)c2ccc(S(=O)(=O)[O-])cc21 [Compound No. 14] | low bleedthrough
CC(C(=O)ON1C(=O)CCC1=O)c1ccc(C[N+]2=C(/C=C/C=C3\Oc4ccccc4N3Cc3ccc(CC(=O)ON4C(=O)CCC4=O)cc3)C(C)(C)c3cc(S(=O)(=O)[O-])ccc32)cc1 (centres unmarked) [Compound No. 12] | minimal fluorescence is seen in the Red2 and NIR2 channel
